Patent US20220372447A1
No constants are given. Whether binding was seen depends on the method and setting. In cells and extracts the contact can be indirect. Some entries that bind do so weakly or less than the wild type.

Chains of the proteins cited; added tags and fusions are not shown. Residues count along the entry.
UniProt Q60793, residues 10-483: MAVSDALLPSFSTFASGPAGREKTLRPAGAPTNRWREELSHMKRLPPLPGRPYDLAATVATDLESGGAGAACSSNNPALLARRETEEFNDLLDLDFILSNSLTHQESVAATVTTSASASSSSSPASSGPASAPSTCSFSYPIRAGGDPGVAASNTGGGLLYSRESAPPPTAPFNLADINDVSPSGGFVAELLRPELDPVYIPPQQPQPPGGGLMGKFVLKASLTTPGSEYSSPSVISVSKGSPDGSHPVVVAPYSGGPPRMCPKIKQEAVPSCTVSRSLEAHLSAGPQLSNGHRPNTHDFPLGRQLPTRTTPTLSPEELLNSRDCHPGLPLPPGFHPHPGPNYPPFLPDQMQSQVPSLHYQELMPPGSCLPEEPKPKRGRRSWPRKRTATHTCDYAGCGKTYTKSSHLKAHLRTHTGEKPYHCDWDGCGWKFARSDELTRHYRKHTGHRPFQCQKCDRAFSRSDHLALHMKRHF
UniProt P48432: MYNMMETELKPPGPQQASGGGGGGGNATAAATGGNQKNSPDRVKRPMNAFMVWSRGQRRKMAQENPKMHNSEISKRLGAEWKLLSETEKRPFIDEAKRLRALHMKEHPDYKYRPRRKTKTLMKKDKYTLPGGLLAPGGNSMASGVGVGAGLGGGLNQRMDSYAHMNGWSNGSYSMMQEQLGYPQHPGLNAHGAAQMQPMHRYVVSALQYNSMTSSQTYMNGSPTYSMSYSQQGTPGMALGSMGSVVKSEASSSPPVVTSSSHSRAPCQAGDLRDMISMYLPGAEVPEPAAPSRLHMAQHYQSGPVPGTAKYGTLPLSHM

Target: Klf4 (UniProt Q60793)
Test: co-immunoprecipitation from lysate of day 2 reprogramming secondary MEFs, western blot detection

binding: binds
Substance: Sox2 (from UniProt P48432 1-319)
